# Measured values: article PMC7819943, “Rice protein-binding microarrays: a tool to detect cis-acting elements near promoter regions in rice”
# Amino acid sequences for entries named in this document (tags omitted).
# UniProt Q0JBA9, entry or part of it: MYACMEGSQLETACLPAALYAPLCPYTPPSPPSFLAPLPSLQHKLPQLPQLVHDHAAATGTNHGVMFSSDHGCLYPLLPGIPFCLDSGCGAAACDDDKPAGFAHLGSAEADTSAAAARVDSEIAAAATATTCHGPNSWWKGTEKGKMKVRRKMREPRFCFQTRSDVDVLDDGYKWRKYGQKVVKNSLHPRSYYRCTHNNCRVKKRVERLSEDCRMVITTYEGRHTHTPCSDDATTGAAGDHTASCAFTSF
# This is one part of the list.
# Biological target: OsWRKY34 (Oryza sativa, UniProt Q0JBA9 1-250)
# Test: protein-binding microarray (RPBM); PBS, 2% BSA, 51.3 ng/ul salmon testes DNA, 50 uM zinc acetate, 200 nM TF, 25 C, 1 h; high values mean tight binding
# Conditions: protein: recombinant; tags: N-terminal polyhistidine and DsRed monomer fusion (pET32a); label: CyDye5-dUTP incorporated in the synthesized complementary strand; 3' TTTTT single-stranded linker to array surface; dsDNA, one strand shown
# Outline: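 Binding signal here means per-feature fluorescence intensity in arbitrary units. The values were read on an Axon 4000B scanner after a custom Agilent array, double-stranded by primer extension with Cy5-dUTP, was incubated with 200 nM protein at 25 °C for 1 h in PBS with 2% BSA, salmon testes DNA and 50 µM zinc acetate, then washed. The proteins were transcription factors with an N-terminal polyhistidine tag and DsRed, expressed in E. coli BL21-CodonPlus and purified on Ni–NTA.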
row,Sequence,binding signal
1,GTCGGTCGGTCTCCTCCCACCACCCGCCGCCGCCGCCATGCGGAGTCACCTAGTGCAG,10700 fluorescence intensity (a.u.)
2,TTTCAATTTTTTCACTACATCGTTCTAGTTTTTTCAAACTCGGAGTCACCTAGTGCAG,8470 fluorescence intensity (a.u.)
3,GAATGGCGACAAGTTGTGTTTTGCTCGTACCGTATTCAGTCGGAGTCACCTAGTGCAG,11000 fluorescence intensity (a.u.)
4,GCCGCCGCCTGCTGCACTGACCTCCCCGCCGTCGTCGCGACGGAGTCACCTAGTGCAG,9730 fluorescence intensity (a.u.)
5,GACTAAATATGATCTTACGCTGCATTTATTTTTGGAATTTCGGAGTCACCTAGTGCAG,8070 fluorescence intensity (a.u.)
6,GTTGGTTTATTTTGAGACGGAGAGACTATATGTGTTTGGACGGAGTCACCTAGTGCAG,8520 fluorescence intensity (a.u.)
7,AAGAAGGGTCAGGAGGGTTGGGAGGGGACGCATTGCAATGCGGAGTCACCTAGTGCAG,11700 fluorescence intensity (a.u.)
8,TACTCTAGCACACATGTTTAAATGTTTTCGTCTTTTAGAACGGAGTCACCTAGTGCAG,8100 fluorescence intensity (a.u.)
9,TATTTCATATTCTTCATTCCACTTGCTATGATACAATGTTCGGAGTCACCTAGTGCAG,9860 fluorescence intensity (a.u.)
10,CCTCCTGCTCGATCCATCCATCCATCCACCCGAACCCTAGCGGAGTCACCTAGTGCAG,9570 fluorescence intensity (a.u.)
11,TGCATATATATCCAGCCGTTACCGAAACTGCTTGCATCACCGGAGTCACCTAGTGCAG,8320 fluorescence intensity (a.u.)
12,TCCCCAACCTTAGCTAGCTACTACTGTCATGCAACGAATTCGGAGTCACCTAGTGCAG,8050 fluorescence intensity (a.u.)
13,TTTAGTTCTAAACTTTCGCTCCATACTACAACCTTCTCATCGGAGTCACCTAGTGCAG,9150 fluorescence intensity (a.u.)
14,GCTTTTCTCAATCTCCATAGCTTTGGCATCGTCCACCTATCGGAGTCACCTAGTGCAG,8210 fluorescence intensity (a.u.)
15,CGCTGCCCTCCGCCCACCGCTGCTCCGTCTACCGCGCTCGCGGAGTCACCTAGTGCAG,8960 fluorescence intensity (a.u.)
16,TTTTGTGTGTGTAGGGGATAATAATTAAAGGGGAGATTTTCGGAGTCACCTAGTGCAG,9080 fluorescence intensity (a.u.)
17,GTTGCCACCTGCCCTGTTCGTGTTTGCGATTGATTTGTACCGGAGTCACCTAGTGCAG,10200 fluorescence intensity (a.u.)
18,CTCATTGGCGCCGTGATCTAATATAATGGTAAACGTTGACCGGAGTCACCTAGTGCAG,13000 fluorescence intensity (a.u.)
19,TTCCTACATACATGCATGCATACTCAATTTTCATGCTTAACGGAGTCACCTAGTGCAG,8820 fluorescence intensity (a.u.)
20,CAGATCCGCCGGTGCATGTTTGACCGTTCGTCTTATTCAACGGAGTCACCTAGTGCAG,13100 fluorescence intensity (a.u.)
21,GCTATACATCTTTCCACTACTTCTCCTCAGCTCGCTTTCCCGGAGTCACCTAGTGCAG,8130 fluorescence intensity (a.u.)
22,AAACTTATATGTTTGTGGGGTGATATATTTCATATTAATCCGGAGTCACCTAGTGCAG,8080 fluorescence intensity (a.u.)
23,CACCGCGTACGTCACATTTACAGCTTTTGGTCGTCTATAACGGAGTCACCTAGTGCAG,11100 fluorescence intensity (a.u.)
24,ACCCTGCACTTTTAAATCCGTCGTCCTTCTAGCTAGTGTTCGGAGTCACCTAGTGCAG,9250 fluorescence intensity (a.u.)
25,GGCCTAATTGGGCCTGGGGAAAACTTACTTGGGCGGGGCTCGGAGTCACCTAGTGCAG,13000 fluorescence intensity (a.u.)
26,ATTTGGTGTGCTTTGCCATGGAGGTTGTATGCCCACATATCGGAGTCACCTAGTGCAG,10400 fluorescence intensity (a.u.)
27,AAGTTAGTACTTTTGACCATTCAACCGGTTAGCATTTATCCGGAGTCACCTAGTGCAG,8550 fluorescence intensity (a.u.)

# Some of the entries above, set out differently:
row	Sequence	binding signal
22	AAACTTATATGTTTGTGGGGTGATATATTTCATATTAATCCGGAGTCACCTAGTGCAG	8080 fluorescence intensity (a.u.)
23	CACCGCGTACGTCACATTTACAGCTTTTGGTCGTCTATAACGGAGTCACCTAGTGCAG	11100 fluorescence intensity (a.u.)
24	ACCCTGCACTTTTAAATCCGTCGTCCTTCTAGCTAGTGTTCGGAGTCACCTAGTGCAG	9250 fluorescence intensity (a.u.)

# Carrying on:

row,Sequence,binding signal
1,GCCACATTCGGTTCCTGAGCTCTCTCTCTTTCTCAGTGTCCGGAGTCACCTAGTGCAG,9910 fluorescence intensity (a.u.)
2,TTCCCACAACTCTGCCGCTTAATTTCTTGTTGGTTCGTGTCGGAGTCACCTAGTGCAG,8930 fluorescence intensity (a.u.)
3,TTTGATACCTATCAGCTGGTCAGCTCTGATCTTCCTGTTTCGGAGTCACCTAGTGCAG,11500 fluorescence intensity (a.u.)
4,GTATGGATCACCTGATTAATTGGGCCGTCGTTCCATTCCCCGGAGTCACCTAGTGCAG,9830 fluorescence intensity (a.u.)
5,GTTTCTTGTGTTCTTGGTGTGGAGAAGGTCGACGCGGAAGCGGAGTCACCTAGTGCAG,9180 fluorescence intensity (a.u.)
6,ACGTATAACTCGTCAGGCACCTGGGCACTGGACCCCACCTCGGAGTCACCTAGTGCAG,8730 fluorescence intensity (a.u.)
7,ATTTTAAATCACGTATTATTCAAGATCTATTTGCATCATTCGGAGTCACCTAGTGCAG,8230 fluorescence intensity (a.u.)
8,TCCCACCCGCATTTTCCATTATCCAAACACATCCTCAAAGCGGAGTCACCTAGTGCAG,8950 fluorescence intensity (a.u.)
9,GGTGAGTTCTTGATTTGGGCGTGGAGCTTTTTTTCTTGGTCGGAGTCACCTAGTGCAG,8170 fluorescence intensity (a.u.)
10,CTCGCCTCCACCTCCACCGCCGCGCTCCTCTCCGCTCCTACGGAGTCACCTAGTGCAG,9880 fluorescence intensity (a.u.)
11,TTACTGATTTACTCATTGTTACTGTTCATTGAAGCTAGTACGGAGTCACCTAGTGCAG,10300 fluorescence intensity (a.u.)
12,ATCCCTTATCATCGCATCTGGAATCCACACAGGTATTTTACGGAGTCACCTAGTGCAG,8110 fluorescence intensity (a.u.)
13,CATTCTGAATGGGTTGTATTTATTGGTTACTGGTTTTTAACGGAGTCACCTAGTGCAG,8300 fluorescence intensity (a.u.)
14,CTGCCGTAGAAGAGGATCTTCCTGTTGTGGTCGTCGACGACGGAGTCACCTAGTGCAG,8640 fluorescence intensity (a.u.)
15,CTCGCCTTCGCCGGTCGCCGCCCGCCTCTCCTTCTCCGGCCGGAGTCACCTAGTGCAG,9070 fluorescence intensity (a.u.)
16,AACCATCATGGTAGCCTTCGTTTAAGACTTATTTGACTTACGGAGTCACCTAGTGCAG,8530 fluorescence intensity (a.u.)
17,GTGCTTTTGTTTTAATTGTTGTCTCTTCTCTTCTCTCGTGCGGAGTCACCTAGTGCAG,8750 fluorescence intensity (a.u.)
18,GGCACTTAGCTCTGCAGTTCATTTAATTATTGTTTTATTCCGGAGTCACCTAGTGCAG,9670 fluorescence intensity (a.u.)
19,AGGTAGTGCTTGATTTATAGTGTTTATGGTGAAGAAATTTCGGAGTCACCTAGTGCAG,8590 fluorescence intensity (a.u.)
20,TGCTCAGCTGCATCATGTTTATCTGTGTGTTTCTTCAGAGCGGAGTCACCTAGTGCAG,10600 fluorescence intensity (a.u.)
21,CTCTTGTAAAATTTGTACATATATTCACGATCGTTAAATTCGGAGTCACCTAGTGCAG,8720 fluorescence intensity (a.u.)
22,GTTCACGTTGACTGCATCTGTCACTTGTGCTGGTTTCTGTCGGAGTCACCTAGTGCAG,8920 fluorescence intensity (a.u.)
23,TTGCCCGCGCTTCGGCCGGCCACCTTGACGGCACGCGTGCCGGAGTCACCTAGTGCAG,8040 fluorescence intensity (a.u.)
24,TCTCGTGGATAGCAAAATTTCCCATTTCTTGATGCGTGACCGGAGTCACCTAGTGCAG,10100 fluorescence intensity (a.u.)
25,ACTTCTATATTTCCAAATTTGTGTTTTTACCATTTTCCTCCGGAGTCACCTAGTGCAG,9610 fluorescence intensity (a.u.)
26,CAACATCATCCTCAACGCCGTCGCCCACCTCGCCGCCGGCCGGAGTCACCTAGTGCAG,9830 fluorescence intensity (a.u.)
27,ATTTTGATATTTTGCTTACACTATTTGACCATTCGTCTTACGGAGTCACCTAGTGCAG,8660 fluorescence intensity (a.u.)
